Laboratory results: PubChem BioAssay AID652272 (Drosophila RNAi Screening Center, 2013)
Purpose: 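Genes whose knock-down decreases or increases Hedgehog reporter output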 (primary screen). Cells: Drosophila clone 8 (Cl8) cells. Reagent: long dsRNA against Drosophila genes. Detection: 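Plate reader light from a firefly reporter under a ptc promoter fragment that responds to Hedgehog, with Renilla light as transfection reference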. Reading the numbers: firefly Hh reporter signal: higher = more ptc reporter light; Renilla reference signal: higher = more Renilla control light. Hit rule: 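Called a hit if the two-replicate mean z-score lies below -2 or above +3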. Calls: active = hit: reporter lowered or raised; inactive = not a hit.
In all, the deposit lists about 21,000 reagents; shown is an unselected part of those with a known target gene and a result. In the full data, 503 (2.4%) are marked active. 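Raw plate light values, not normalised; calls rest on replicate z-scores that were not deposited; hits include reporter decreases as well as increases.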 Not given: the amount of reagent, the time to read-out.

CG43693 (GeneID 39231) [DRSC09086]
- firefly Hh reporter signal, replicate 1: 1.36e5
- firefly Hh reporter signal, replicate 2: 2.44e5
- Renilla reference signal, replicate 1: 4432
- Renilla reference signal, replicate 2: 10354
- call: inactive

CG43693 (GeneID 39231) [DRSC10625]
- firefly Hh reporter signal, replicate 1: 81220
- firefly Hh reporter signal, replicate 2: 56325
- Renilla reference signal, replicate 1: 4784
- Renilla reference signal, replicate 2: 2368
- call: inactive

CG18095 (GeneID 34823) [DRSC01948]
- firefly Hh reporter signal, replicate 1: 1.61e5
- firefly Hh reporter signal, replicate 2: 63648
- Renilla reference signal, replicate 1: 4176
- Renilla reference signal, replicate 2: 5488
- call: inactive

CG5089 (GeneID 36859) [DRSC06914]
- firefly Hh reporter signal, replicate 1: 88140
- firefly Hh reporter signal, replicate 2: 72844
- Renilla reference signal, replicate 1: 3954
- Renilla reference signal, replicate 2: 3120
- call: inactive

CG31371 (GeneID 43626) [DRSC15079]
- firefly Hh reporter signal, replicate 1: 83080
- firefly Hh reporter signal, replicate 2: 78082
- Renilla reference signal, replicate 1: 2759
- Renilla reference signal, replicate 2: 2518
- call: inactive

CG14856 (GeneID 41790) [DRSC14980]
- firefly Hh reporter signal, replicate 1: 1.14e5
- firefly Hh reporter signal, replicate 2: 1.25e5
- Renilla reference signal, replicate 1: 4435
- Renilla reference signal, replicate 2: 3395
- call: inactive

Mayo (GeneID 43678) [DRSC14300]
- firefly Hh reporter signal, replicate 1: 90660
- firefly Hh reporter signal, replicate 2: 1.45e5
- Renilla reference signal, replicate 1: 3457
- Renilla reference signal, replicate 2: 4104
- call: inactive

RtGEF (GeneID 35306) [DRSC03604]
- firefly Hh reporter signal, replicate 1: 90020
- firefly Hh reporter signal, replicate 2: 45990
- Renilla reference signal, replicate 1: 2209
- Renilla reference signal, replicate 2: 4274
- call: inactive

Zyx (GeneID 317824) [DRSC17186]
- firefly Hh reporter signal, replicate 1: 4.73e5
- firefly Hh reporter signal, replicate 2: 1.83e5
- Renilla reference signal, replicate 1: 23755
- Renilla reference signal, replicate 2: 4632
- call: inactive

CG33286 (GeneID 2768984) [DRSC11691]
- firefly Hh reporter signal, replicate 1: 1.06e5
- firefly Hh reporter signal, replicate 2: 1.31e5
- Renilla reference signal, replicate 1: 3899
- Renilla reference signal, replicate 2: 3810
- call: inactive

CG33752 (GeneID 3771860) [DRSC05351]
- firefly Hh reporter signal, replicate 1: 1.80e5
- firefly Hh reporter signal, replicate 2: 3.01e5
- Renilla reference signal, replicate 1: 4386
- Renilla reference signal, replicate 2: 12898
- call: inactive

CG10764 (GeneID 36962) [DRSC06000]
- firefly Hh reporter signal, replicate 1: 1.09e5
- firefly Hh reporter signal, replicate 2: 77402
- Renilla reference signal, replicate 1: 6080
- Renilla reference signal, replicate 2: 3756
- call: inactive

In a second layout: 2 of the entries above
{"gene knocked down":"CG33752 (GeneID 3771860)","DRSC id":"DRSC05351","firefly Hh reporter signal, replicate 1":1.80e5,"firefly Hh reporter signal, replicate 2":3.01e5,"Renilla reference signal, replicate 1":4386,"Renilla reference signal, replicate 2":12898,"call":"inactive"}
{"gene knocked down":"CG10764 (GeneID 36962)","DRSC id":"DRSC06000","firefly Hh reporter signal, replicate 1":1.09e5,"firefly Hh reporter signal, replicate 2":77402,"Renilla reference signal, replicate 1":6080,"Renilla reference signal, replicate 2":3756,"call":"inactive"}
